{
  "source": "PubChem BioAssay AID248",
  "about": "(DTP/NCI, 2004)",
  "tested_on": "L1210 leukemia ip in BDF1 mice, survival T/C",
  "experiment": "NCI In Vivo Anticancer Drug Screen. Data for tumor model L1210 Leukemia (intraperitoneal) in B6D2F1 (BDF1) mice",
  "settings": "T/C endpoint: mean survival time, higher T/C = longer survival",
  "key": {"[1]": {"settings": "dose: 400.0 mg/kg/injection, schedule: Q04DX003 (ip), vehicle: Klucel (hydroxypropylcellulose) (HPC)"}},
  "note": "The list is a part of this screen's results and no random one: it is rich in T/C values a quarter to a half above the control, in often repeated tests (any T/C) and in doses without a T/C. Other doses and runs of a compound stand elsewhere. T/C is the treated group as % of the vehicle group. Some doses have a count of surviving animals in place of a T/C: the source files T/C as zero there, which appears to mark a toxic dose or a test without result, not a measured value. Some doses without a T/C left all or most animals alive at the check, yet need not have been tolerated: the source hardly ever lists a survival T/C far under the control, and the zero likely stands for such cases as well. Survivors were counted at the toxicity check, usually on the fifth day, unless a day is given; later deaths do not show. Schedules are NCI's codes, taken here to give the interval after Q, in days (D) or hours (H), and the number of doses after X. For survival time, this PubChem deposit counts one and a half times the control or more as active, and values a quarter to a half above the control carry no call in these data; other NCI protocols may use other cut-offs.",
  "data": [
    {"smiles": "CCCCCCCCCCCC(=O)NC(=S)Nc1cc(Cl)ccc1C", "values": [
      {"measurement": "survivor count", "setting": "dose: 100.0 mg/kg/injection, schedule: Q04DX003 (ip), vehicle: Klucel (hydroxypropylcellulose) (HPC)", "result": "5 of 6"},
      {"measurement": "survivor count", "setting": "dose: 200.0 mg/kg/injection, schedule: Q04DX003 (ip), vehicle: Klucel (hydroxypropylcellulose) (HPC)", "result": "6 of 6"},
      {"measurement": "survivor count", "setting": "[1]", "result": "5 of 6"}
    ]},
    {"smiles": "CCC/C(C)=N/Nc1ccccn1", "values": [
      {"measurement": "survivor count", "setting": "dose: 100.0 mg/kg/injection, schedule: Q01DX009 (ip), vehicle: acetone", "result": "0 of 6"},
      {"measurement": "survivor count", "setting": "dose: 200.0 mg/kg/injection, schedule: Q04DX003 (ip), vehicle: acetone", "result": "5 of 6"},
      {"measurement": "survivor count", "setting": "dose: 400.0 mg/kg/injection, schedule: Q01DX001 (ip), vehicle: acetone", "result": "0 of 6"}
    ]},
    {"smiles": "CC(=O)OCC1CCC(NC(=O)N(CCF)N=O)CC1", "note": "(stereo not drawn)", "values": [
      {"measurement": "T/C", "setting": "dose: 6.0 mg/kg/injection, schedule: Q01DX001 (ip), vehicle: saline with Tween-80", "result": "125 % of control"},
      {"measurement": "T/C", "setting": "dose: 30.0 mg/kg/injection, schedule: Q01DX001 (ip), vehicle: saline with Tween-80", "result": "144 % of control"},
      {"measurement": "survivor count", "setting": "dose: 67.0 mg/kg/injection, schedule: Q01DX001 (ip), vehicle: saline with Tween-80", "result": "3 of 6"},
      {"measurement": "survivor count", "setting": "dose: 100.0 mg/kg/injection, schedule: Q01DX001 (ip), vehicle: saline with Tween-80", "result": "3 of 6"},
      {"measurement": "survivor count", "setting": "dose: 150.0 mg/kg/injection, schedule: Q01DX001 (ip), vehicle: saline with Tween-80", "result": "0 of 6"}
    ]},
    {"smiles": "COC(=O)c1cn[nH]c1/N=N/N(C)CCO", "values": [
      {"measurement": "T/C", "setting": "dose: 100.0 mg/kg/injection, schedule: Q01DX009 (ip), vehicle: saline", "result": "130 % of control"},
      {"measurement": "T/C", "setting": "dose: 400.0 mg/kg/injection, schedule: Q01DX009 (ip), vehicle: saline", "result": "136 % of control"}
    ]},
    {"smiles": "Nc1[nH]c(=O)ncc1-c1cccc(Cl)c1", "values": [
      {"measurement": "survivor count", "setting": "dose: 100.0 mg/kg/injection, schedule: Q01DX009 (ip), vehicle: Klucel (hydroxypropylcellulose) (HPC)", "result": "0 of 3"},
      {"measurement": "survivor count", "setting": "dose: 200.0 mg/kg/injection, schedule: Q01DX009 (ip), vehicle: Klucel (hydroxypropylcellulose) (HPC)", "result": "0 of 3"}
    ]},
    {"smiles": "CCCC(/C=N/Nc1ccc([N+](=O)[O-])cc1[N+](=O)[O-])=C\\c1ccccc1", "values": [
      {"measurement": "survivor count", "setting": "dose: 400.0 mg/kg/injection, schedule: Q01DX001 (ip), vehicle: saline with Tween-80", "result": "6 of 6"}
    ]},
    {"smiles": "Nc1ccn(C2OC(COP(=O)(O)Oc3ccccc3)C(O)C2O)c(=O)n1", "note": "(stereo not drawn)", "values": [
      {"measurement": "survivor count", "setting": "dose: 300.0 mg/kg/injection, schedule: Q01DX001 (ip), vehicle: saline", "result": "1 of 6"}
    ]},
    {"smiles": "CCSN1C(=O)c2ccccc2C1=O", "values": [
      {"measurement": "survivor count", "setting": "dose: 200.0 mg/kg/injection, schedule: Q04DX002 (ip), vehicle: Klucel (hydroxypropylcellulose) (HPC)", "result": "0 of 3"},
      {"measurement": "survivor count", "setting": "dose: 400.0 mg/kg/injection, schedule: Q04DX002 (ip), vehicle: Klucel (hydroxypropylcellulose) (HPC)", "result": "0 of 3"}
    ]},
    {"smiles": "CCN1C(=O)/C(=C\\C=C2\\SCCN2CI)OC1=S", "values": [
      {"measurement": "survivor count", "setting": "dose: 266.8 mg/kg/injection, schedule: Q01DX001 (ip), vehicle: other", "result": "6 of 6"}
    ]},
    {"smiles": "COc1ccc2c(c1)CCC2=O", "values": [
      {"measurement": "survivor count", "setting": "dose: 200.0 mg/kg/injection, schedule: Q01DX009 (ip), vehicle: saline with Tween-80", "result": "3 of 6"},
      {"measurement": "survivor count", "setting": "[1]", "result": "0 of 6"}
    ]},
    {"smiles": "CN(C)c1ccc(/C=C/C=N/N=C/c2ccccc2O)cc1", "values": [
      {"measurement": "survivor count", "setting": "dose: 300.0 mg/kg/injection, schedule: Q01DX001 (ip), vehicle: other", "result": "6 of 6"}
    ]},
    {"smiles": "O=C1/C(=C/c2ccncc2)CCCc2ccccc21", "values": [
      {"measurement": "survivor count", "setting": "dose: 100.0 mg/kg/injection, schedule: Q04DX003 (ip), vehicle: carboxymethylcellulose (CMC)", "result": "6 of 6"},
      {"measurement": "survivor count", "setting": "dose: 400.0 mg/kg/injection, schedule: Q04DX003 (ip), vehicle: carboxymethylcellulose (CMC)", "result": "0 of 6"}
    ]},
    {"smiles": "Nc1nc(N)c2nc(CNc3ccc(C(=O)NC(CCCCC(=O)O)C(=O)O)cc3)cnc2n1", "note": "(stereo not drawn)", "values": [
      {"measurement": "T/C", "setting": "dose: 9.0 mg/kg/injection, schedule: Q01DX009 (ip), vehicle: sodium bicarbonate", "result": "134 % of control"},
      {"measurement": "T/C", "setting": "dose: 13.0 mg/kg/injection, schedule: Q01DX009 (ip), vehicle: sodium bicarbonate", "result": "134 % of control"},
      {"measurement": "T/C", "setting": "dose: 20.0 mg/kg/injection, schedule: Q01DX009 (ip), vehicle: sodium bicarbonate", "result": "141 % of control"},
      {"measurement": "T/C", "setting": "dose: 30.0 mg/kg/injection, schedule: Q01DX009 (ip), vehicle: sodium bicarbonate", "result": "141 % of control"},
      {"measurement": "T/C", "setting": "dose: 40.0 mg/kg/injection, schedule: Q01DX009 (ip), vehicle: sodium bicarbonate", "result": "130 % of control"},
      {"measurement": "survivor count", "setting": "dose: 80.0 mg/kg/injection, schedule: Q01DX009 (ip), vehicle: sodium bicarbonate", "result": "2 of 3"}
    ]},
    {"smiles": "O=C(O)CC(SC(c1ccccc1)(c1ccccc1)c1ccccc1)C(=O)O", "note": "(stereo not drawn)", "values": [
      {"measurement": "survivor count", "setting": "dose: 400.0 mg/kg/injection, schedule: Q01DX009 (ip), vehicle: Klucel (hydroxypropylcellulose) (HPC)", "result": "0 of 6"}
    ]},
    {"smiles": "COc1cccc(CNC(C)(CO)CO)c1OC", "values": [
      {"measurement": "survivor count", "setting": "dose: 400.0 mg/kg/injection, schedule: Q01DX001 (ip), vehicle: saline", "result": "0 of 4"}
    ]}
  ]
}
